Patent US10085963B2, “Process and compositions for achieving mammalian energy balance” (SAMI LABS LIMITED, priority 2015, dated 2018)
At least one structure is not confirmed: it was looked up by name or label, or the drawing left a doubt.

Legend:
Assay type in all cases: cell-based
[1] = tested on: mammalian pre-adipocytes / adipocytes; assay: Adipogenesis inhibition, Oil Red O staining; settings: each tested concentration, 6.25-100 μg/ml
Protocol: […] C.) of 5% CO2 and 95% air; • f) Fixing, the cells of step e by adding 100 μl of 10% formalin and staining using the Oil Red O technique; • g) Reading the optical density of cells of step f at 492 nm in a microplate reader and expressing the results as inhibitory concentration (IC50) values using the graph pad prism software; • h) Calculating the percentage inhibition of adipogenesis in the cells of steps f and g using the formula, C-T/T×100, wherein C is the absorbance of Oil Red O in differentiating/undifferentiated cells and T is the absorbance of Oil Red O in sample treated differentiating/undifferentiated cells. • i) Adding 200 μl of freshly prepared Adipogenesis induction medium to the wells of step a. • j) Adding 200 μl of freshly prepared Adipogenesis progression medium comprising graded concentrations of forskolin (50 μg/ml and 100 μg/ml respectively) to the wells of step i after 72 hours of incubation with the Adipogenesis induction medium; • k) Incubating the cells treated with forskolin (step j), adipogenesis induction medium (step i) and adipogenesis progression medium (step j) for 48 hours in a humidified atmosphere (37 deg. […]

[2] = tested on: BMP-7 in cultured 3T3-L1 adipocytes; assay: ELISA quantification of BMP-7 in cell culture supernatant; settings: forskolin 50 and 100 μg/ml; pre-adipocyte stage compared with adipocyte stage
[3] = tested on: BMP-4 in cultured 3T3-L1 adipocytes; assay: ELISA quantification of BMP-4 in cell culture supernatant; settings: forskolin 50 and 100 μg/ml; pre-adipocyte stage compared with adipocyte stage
[4] = tested on: VEGF-A in cultured 3T3-L1 adipocytes; assay: ELISA quantification of VEGF-A in cell culture supernatant; settings: forskolin 50 and 100 μg/ml; pre-adipocyte stage compared with adipocyte stage
[5] = tested on: UCP-1 in cultured 3T3-L1 adipocytes; assay: ELISA quantification of UCP-1 in cell culture supernatant; settings: forskolin 50 and 100 μg/ml; pre-adipocyte stage compared with adipocyte stage

`C=C[C@@]1(C)CC(=O)[C@]2(O)[C@@]3(C)[C@@H](O)CCC(C)(C)[C@@H]3[C@H](O)[C@H](OC(C)=O)[C@@]2(C)O1` [forskolin] was tested, and the “% inhibition of adipogenesis at the pre-adipocyte stage as compared to administration at the adipocyte stage” value [1] was “Double or more than double”, the “BMP-7 expression in cell culture supernatant” value [2] was “profoundly increased BMP-7 expression” and the “BMP-4 expression in cell culture supernatant” value [3] was “profoundly increased BMP-4 expression”. The “VEGF-A expression in cell culture supernatant” value [4] was “profoundly increased VEGF-A expression” and the “UCP-1 expression in cell culture supernatant” value [5] was “profoundly increased UCP-1 expression”.
